Values from PubChem BioAssay AID686938 (Drosophila RNAi Screening Center, 2013)
The deposit covers about 23,000 reagents; shown is an unselected part of those that have a named target and a result. Of all reagents, 75 (0.33%) were called active. 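Raw plate signals without normalisation; calls rest on plate z-scores that were not deposited; ratio present for only 364 wells.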 The numbers tell different reagents against one gene apart. Names joined by + are all predicted targets of the reagent. Reagent sequences are not shown. Not given: the dose of the treatment.

- Purpose: 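Looking for CRAC channel components and the factors controlling them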 (primary screen)
- System: Drosophila S2R+ cells
- Knock-down reagent: long dsRNA against Drosophila genes, about 0.25 µg dsRNA per well, roughly 10,000 cells
- Duration: 5 days of knock-down before the calcium assay
- Treatment: thapsigargin (SERCA pump blocker) to empty calcium stores; entry signal taken 4 min after adding it
- Measurement: 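Duplicate raw fluo-4 intensities per well from a plate reader, at rest and four minutes after thapsigargin emptied calcium stores; entry-to-rest ratio filled for only some wells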
- Direction: calcium entry signal: higher = stronger calcium signal after store depletion; entry to resting ratio: higher = more calcium entry relative to resting level; resting calcium signal: higher = higher resting calcium signal
- Call rule: 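Called when the plate z-score of the entry-to-rest ratio, mean of duplicates, falls below −3; wells with low overall dye signal (Fmax z below −2) or more than five off-targets excluded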
- Meaning of the calls: active = strongly reduced calcium entry; inactive = no strong reduction

The opening 6 records as a preview:
no.	target gene	reagent	calcium entry signal, replicate 1 (fluorescence units)	calcium entry signal, replicate 2 (fluorescence units)	entry to resting ratio	resting calcium signal, replicate 1 (fluorescence units)	resting calcium signal, replicate 2 (fluorescence units)	activity call
1	CG33627	1	4.12e7	3.53e7		1.78e7	1.40e7	inactive
2	DIP-iota (Dpr-interacting protein iota)	1	2.51e7	2.84e7		1.36e7	1.34e7	inactive
3	CG42615	1	1.81e7	3.08e7		9.64e6	1.34e7	inactive
4	Alh (Alhambra)	1	3.09e7	4.10e7		1.84e7	2.20e7	inactive
5	Alh (Alhambra)	2	4.44e7	3.58e7		2.19e7	1.62e7	inactive
6	Alh (Alhambra)	3	4.39e7	2.88e7		2.14e7	1.48e7	inactive

Main list, from the first entry:
no.	target gene	reagent	calcium entry signal, replicate 1 (fluorescence units)	calcium entry signal, replicate 2 (fluorescence units)	entry to resting ratio	resting calcium signal, replicate 1 (fluorescence units)	resting calcium signal, replicate 2 (fluorescence units)	activity call
1	CG33627	1	4.12e7	3.53e7		1.78e7	1.40e7	inactive
2	DIP-iota (Dpr-interacting protein iota)	1	2.51e7	2.84e7		1.36e7	1.34e7	inactive
3	CG42615	1	1.81e7	3.08e7		9.64e6	1.34e7	inactive
4	Alh (Alhambra)	1	3.09e7	4.10e7		1.84e7	2.20e7	inactive
5	Alh (Alhambra)	2	4.44e7	3.58e7		2.19e7	1.62e7	inactive
6	Alh (Alhambra)	3	4.39e7	2.88e7		2.14e7	1.48e7	inactive
7	nrv1 (nervana 1)	1	3.38e7			1.82e7		inactive
8	CG11523	1	3.61e7	4.78e7		1.61e7	2.97e7	inactive
9	CG7985	1	4.87e7	4.12e7		2.29e7	1.91e7	inactive
10	Dgat2 (Diacylglycerol O-acyltransferase 2)	1	3.96e7	2.80e7		1.68e7	1.38e7	inactive
11	Def (Defensin)	1	4.92e7	3.69e7		2.09e7	1.61e7	inactive
12	CG31139	1	4.28e7	3.71e7		2.41e7	1.75e7	inactive
13	CG13359	1	3.59e7	4.26e7	2	1.76e7	1.76e7	inactive
14	CCDC151 (Coiled-coil domain containing protein 151)	1	3.29e7	3.66e7		1.63e7	1.55e7	inactive
15	Muc26B (Mucin 26B)	1	3.83e7	3.90e7		1.79e7	1.86e7	inactive
16	CG33172	1	3.71e7	3.88e7		2.18e7	1.95e7	inactive
17	CG42271	1	2.83e7	3.58e7		1.43e7	1.73e7	inactive
18	CG42271	2	5.26e7	3.19e7		2.74e7	1.52e7	inactive
19	Spt-I (Serine palmitoyltransferase subunit I)	1	2.33e7	3.20e7		1.27e7	1.43e7	inactive
20	CG42382	1	3.64e7	4.86e7		1.74e7	2.17e7	inactive
21	mbt (mushroom bodies tiny)	1	2.91e7	2.93e7		1.64e7	1.39e7	inactive
22	mbt (mushroom bodies tiny)	2	5.02e7	3.28e7		2.22e7	1.46e7	inactive
23	tant (tantalus)	1	1.85e7	3.23e7		9.80e6	1.30e7	inactive
24	CG31544 (retired record)	1	2.91e7	3.95e7		1.42e7	1.78e7	inactive
25	CG34210	1	3.63e7	3.69e7		2.03e7	1.78e7	inactive
26	Pex3 (Peroxin 3)	1	2.99e7	3.86e7		1.41e7	2.53e7	inactive
27	CG8176	1	2.93e7	2.56e7		1.42e7	1.36e7	inactive
28	Tsp42A (Tetraspanin 42A)	1	4.18e7	4.22e7		2.13e7	1.89e7	inactive
29	CG31643	1	2.45e7	3.69e7		1.35e7	1.77e7	inactive
30	Wnt6 (Wnt oncogene analog 6)	1	3.63e7	2.67e7		1.68e7	1.22e7	inactive
31	bcd (bicoid)	1	3.96e7	4.14e7		1.57e7	1.94e7	inactive
32	Nepl6 (Neprilysin-like 6)	1	4.23e7	3.09e7		2.27e7	1.69e7	inactive
33	Drice (Death related ICE-like caspase)	1	3.55e7	4.23e7		1.67e7	2.05e7	inactive
34	CG33017	1	4.12e7	4.46e7		1.79e7	2.18e7	inactive
35	CG33017	2	4.11e7	3.98e7		1.80e7	1.98e7	inactive
36	lectin-46Cb	1	4.45e7	4.20e7		2.04e7	1.61e7	inactive
37	CG31778	1	5.24e7			2.55e7		inactive
38	Adh + Adhr	1	5.22e7			2.33e7		inactive
39	Adh + Adhr	2	5.14e7	2.99e7		2.16e7	1.45e7	inactive
40	CG30183	1	3.97e7	4.99e7		2.08e7	2.24e7	inactive
41	CG30183	2	4.10e7	4.55e7		2.16e7	2.03e7	inactive
42	hng3 (hinge3)	1	3.66e7	3.69e7		1.87e7	1.79e7	inactive
43	CG13998	1	3.26e7	3.60e7		1.60e7	1.58e7	inactive
44	CG33489	1	3.87e7	3.59e7		1.95e7	1.69e7	inactive
45	CG30344	1	4.49e7	3.40e7		2.61e7	1.63e7	inactive
46	Cpr49Ad (Cuticular protein 49Ad)	1	3.28e7	3.77e7		1.70e7	1.81e7	inactive
47	mRpL37 (mitochondrial ribosomal protein L37)	1	4.30e7	3.54e7		1.84e7	1.72e7	inactive
48	CG2641	1	4.30e7	3.78e7		1.98e7	1.63e7	inactive
49	CR31032 (pseudo)	1	3.13e7	3.17e7		1.93e7	1.59e7	inactive
50	kdn (knockdown)	1	3.28e7	4.02e7		1.58e7	1.70e7	inactive
51	oc (ocelliless)	1	3.89e7	3.94e7		2.11e7	1.97e7	inactive
52	CG9928	1	4.54e7	3.37e7		2.07e7	1.59e7	inactive
53	mew (multiple edematous wings)	1	4.01e7	3.08e7		1.96e7	1.51e7	inactive
54	mew (multiple edematous wings)	2	3.83e7	5.57e7		1.94e7	2.57e7	inactive
55	flip (flippy)	1	3.10e7	5.21e7		1.61e7	2.41e7	inactive
56	Mst98Cb (Male-specific RNA 98Cb)	1	3.37e7	4.12e7		1.69e7	2.22e7	inactive
57	Mst98Cb (Male-specific RNA 98Cb)	2	4.63e7	3.77e7		2.92e7	1.86e7	inactive
58	CG43174 (retired record) + CG43173 (retired record)	1	3.36e7	3.91e7		1.60e7	1.92e7	inactive
